From patent US5855916A, “Highly soluble multicomponent inclusion complexes containing a base type drug, an acid and a cyclodextrin” (priority 1993, dated 1999)
Converted amounts (≈) assume the structure as drawn.

How the values were obtained:
[1] = Table 1
physchem = conditions: water, room temperature

Solubility ratio to FB: FB ([1]; drug alone): 1 x
Solubility ratio to FB: FB/AT ([1]; drug with tartaric acid): 90 x
Solubility ratio to FB: FB/AT/βCD ([1]; drug/tartaric acid/β-CD multicomponent complex): 2000 x
Water solubility, drug concentration F: FB/AT/βCD ([1]; drug/tartaric acid/β-CD multicomponent complex, room temperature): 20000 µg/mL
Solubility ratio to FB: FB/βCD ([1]; drug/β-CD complex): 5 x
Water solubility, drug concentration F: FB/βCD ([1]; drug/β-cyclodextrin complex, room temperature): 500 µg/mL
solubility (physchem; drug concentration F: FB, Table 1, basic-type drug alone): 100 µg/mL (≈ 0.271 mM)
solubility (physchem; drug concentration F: FB/AT, Table 1, drug with tartaric acid): 9000 µg/mL (≈ 24.4 mM)
Structure (SMILES): C(=C\c1ccccc1)/CN1CCN(C(c2ccccc2)c2ccccc2)CC1 [Cinnarizine]
